Patent US20230416328A1, “C-Type Natriuretic Peptides and Methods Thereof in Treating Acute Lung Injury” (priority 2020, published 2023)
Not every detail of the peptide structures is certain; ends, links or a residue may be inferred. Some of these results come from one statement about several compounds together. Numbered stars: 1 amine (or outer) side, 2 acyl side, 3 side chain; on linkers, the order of the positions; unused ones are H or OH. Bridge positions count the residues as written; N and C are the ends. Square brackets hold non-standard residues; d marks the D form. Peptide text beside a SMILES is read from it. * marks the point of attachment. C18 diacid = O=C(O)CCCCCCCCCCCCCCCCC(=O)*; γGlu = O=C(O)[C@H](CCC(=O)[*:2])N[*:1]; Aad = N[C@@H](CCCC(=O)O)C(=O)O; AEEA = NCCOCCOCC(=O)O

Assays:
[1] = Pharmacokinetic study of dCNP-s1 and dCNP-s2: plasma CNP (ELISA) in CD-1 mice; format: in vivo; conditions: 2.0 mg/Kg s.c. bolus, FIG. 20
Description: For this pharmacokinetic study, all animals (mice) for this study were maintained under a 12-hour light/12-hour dark cycle with free access to water and standard mouse diet (Lab Pico Rodent #5053; Animal Specialties, Woodburn, OR). Male CD-1 mice (6-8 weeks old; Charles River, Hollister, CA) were treated with 2.0 mg/Kg of CNP derivative s1 (dCNP-s1; PharmaIN Corp, Bothell, WA), and CNP derivative s2 (dCNP-s2; PharmaIN Corp, Bothell, WA) via subcutaneous administration between the shoulder blades.

[2] = tested on: LPS-induced sepsis; test: LPS-induced sepsis lethality in Balb/c mice (survival); format: in vivo; conditions: LPS 10 mg/kg i.p., 1.0 mg/kg s.c.
Description: Male Balb/c mice (11 week) were purchased from Kyudo (Saga, Japan) and maintained under a 12-hour light/12-hour dark cycle with free access to water and standard mouse diet (MF diet, Oriental Yeast Co., Ltd. Tokyo, Japan). […] Test articles were administered right after LPS administration. Survival was observed every 2 hours.
Table 1. […] Shown is the % survival by hours. […] Survival was observed every 2 hours (FIGS. 13A and 13B). First mortality observed was in Italicized and bold and the last observation survival % was in bold in the table.

[3] = tested on: cisplatin induced acute kidney injury; test: Cisplatin induced acute kidney injury: kidney function and kidney fibrosis; format: in vivo, mice; conditions: CDDP 10 mg/kg IP day 0, 7, 14, 21; 0.1 or 1.0 mg/Kg s.c. 5 times/week for 4 weeks; FIG. 18B
[4] = hours '0' [sic] (second to last observation)

Structure (SMILES)	duration of sustained higher blood level of CNP [1]	Percent animal survival at various time after LPS administration ([2]; hours 1 (last observation))	Percent animal survival at various time after LPS administration ([2]; hours 7 [sic])	Percent animal survival at various time after LPS administration ([2]; hours 9 [sic])	Percent animal survival at various time after LPS administration ([2]; hours '0')	Percent animal survival at various time after LPS administration [2, 4]	Percent animal survival at various time after LPS administration ([2]; hours '2')	Percent animal survival at various time after LPS administration ([2]; hours '8')	Percent animal survival at various time after LPS administration ([2]; hours printed '5' (r13))	Percent animal survival at various time after LPS administration ([2]; hours printed '6' (r14))	Percent animal survival at various time after LPS administration ([2]; hours 3 [sic])	kidney function based on albumin-to-creatinine ratio in urine [3]
CC[C@H](C)[C@@H]1NC(=O)[C@H](CCCNC(=N)N)NC(=O)[C@H](CC(=O)O)NC(=O)[C@H](CC(C)C)NC(=O)[C@H](CCCCN)NC(=O)[C@H](CC(C)C)NC(=O)CNC(=O)[C@H](Cc2ccccc2)NC(=O)[C@@H](NC(=O)CNC(=O)COCCOCCNC(=O)COCCOCCNC(=O)CCCCCCCCCCCCCCCCC(=O)O)CSSC[C@@H](C(=O)O)NC(=O)CNC(=O)[C@H](CC(C)C)NC(=O)CNC(=O)[C@H](CO)NC(=O)[C@H](CCCC(N)=O)NC(=O)[C@H](CO)NC(=O)CNC1=O [dCNP-s1] ({C18 diacid-AEEA-AEEA}-GCFGLKLDRIGS[Aad](NH2)SGLGC-OH; disulfide 2-18)	at least 8 hours											
CC[C@H](C)[C@@H]1NC(=O)[C@H](CCCNC(=N)N)NC(=O)[C@H](CC(=O)O)NC(=O)[C@H](CC(C)C)NC(=O)[C@H](CCCCN)NC(=O)[C@H](CC(C)C)NC(=O)CNC(=O)[C@H](Cc2ccccc2)NC(=O)[C@@H](NC(=O)CNC(=O)[C@H](CCCCN)NC(=O)[C@H](CO)NC(=O)[C@H](CC(C)C)NC(=O)CN)CSSC[C@@H](C(=O)O)NC(=O)CNC(=O)[C@H](CC(C)C)NC(=O)CNC(=O)[C@H](CO)NC(=O)[C@H](CCSC)NC(=O)[C@H](CO)NC(=O)CNC1=O [CNP]		0%	10%	10%	100%	10%	100%	10%	30%	30%		
CC[C@H](C)[C@@H]1NC(=O)[C@H](CCCNC(=N)N)NC(=O)[C@H](CC(=O)O)NC(=O)[C@H](CC(C)C)NC(=O)[C@H](CCCCN)NC(=O)[C@H](CC(C)C)NC(=O)CNC(=O)[C@H](Cc2ccccc2)NC(=O)[C@@H](NC(=O)CNC(=O)COCCOCCNC(=O)COCCOCCNC(=O)CC[C@H](NC(=O)CCCCCCCCCCCCCCCCC(=O)O)C(=O)O)CSSC[C@@H](C(=O)O)NC(=O)CNC(=O)[C@H](CC(C)C)NC(=O)CNC(=O)[C@H](CO)NC(=O)[C@H](CCCC(N)=O)NC(=O)[C@H](CO)NC(=O)CNC1=O [dCNP-s2] ({C18 diacid-γGlu-AEEA-AEEA}-GCFGLKLDRIGS[Aad](NH2)SGLGC-OH; disulfide 2-18)	at least 8 hours											
CCCCCCCCCCCCCCCCCC(=O)N[C@@H](CCCCN)C(=O)N[C@@H](CCCCN)C(=O)N[C@@H](CCCCN)C(=O)N[C@@H](CCCCN)C(=O)NCC(=O)NCC(=O)NCC(=O)NCC(=O)N[C@@H](CC(C)C)C(=O)N[C@@H](CO)C(=O)N[C@@H](CCCCN)C(=O)NCC(=O)N[C@H]1CSSC[C@@H](C(=O)O)NC(=O)CNC(=O)[C@H](CC(C)C)NC(=O)CNC(=O)[C@H](CO)NC(=O)[C@H](CCSC)NC(=O)[C@H](CO)NC(=O)CNC(=O)[C@H]([C@@H](C)CC)NC(=O)[C@H](CCCNC(=N)N)NC(=O)[C@H](CC(=O)O)NC(=O)[C@H](CC(C)C)NC(=O)[C@H](CCCCN)NC(=O)[C@H](CC(C)C)NC(=O)CNC(=O)[C@H](Cc2ccccc2)NC1=O [dCNP]		0%	10%	10%	100%	10%	100%	10%		50%	100%	significant improvement in kidney function
